Data source: PubChem BioAssay AID1508597 (Cure First, 2020)
Shown is an unselected part of the about 2,100 reagents, under one of the conditions tested. 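Calls flag viability under 80% in either arm, not effects specific to rucaparib; the reference for percent is not stated.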 Entries without a mark were called inactive. Reagent sequences are not shown. The record does not give: the 100% reference.

- Aim: 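Survival screen with siRNA in ovarian cancer cells derived from patients, with or without rucaparib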 (primary screen)
- Cells: human ovarian carcinoma lines grown from tumours: OCI-P5x (papillary serous) and OCI-C5x (clear cell)
- Knock-down reagent: siRNA pool against human genes, 1.25 pmol siRNA per well
- Duration: 72 h or 96 h, depending on the cell culture
- Challenge: rucaparib 20 µM (about IC30) or vehicle, present until read-out
- Rucaparib or vehicle: Rucaparib
- Cell line: OCI-P5x (serous)
- Read-out: 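ATP luminescence measured at 72 or 96 h according to the culture, then normalised and expressed as percent viability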
- Direction: viability, normalised: higher = more viable cells remaining
- Call rule: 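Active when normalised viability falls below 80 percent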
- Meaning of the calls: active = viability under 80%; inactive = viability 80% or more

| gene | technical replicate | viability, normalised (%) |
| --- | --- | --- |
| MAP4K4 (mitogen-activated protein kinase kinase kinase kinase 4) | 1 | 119 |
| MAP4K4 (mitogen-activated protein kinase kinase kinase kinase 4) | 2 | 112 |
| MAP4K4 (mitogen-activated protein kinase kinase kinase kinase 4) | 3 | 109 |
| RPA4 (replication protein A4) | 1 | 55.2 (active) |
| RPA4 (replication protein A4) | 2 | 68.7 (active) |
| RPA4 (replication protein A4) | 3 | 62.4 (active) |
| SBNO1 (strawberry notch homolog 1) | 1 | 39.9 (active) |
| SBNO1 (strawberry notch homolog 1) | 2 | 49.7 (active) |
| SBNO1 (strawberry notch homolog 1) | 3 | 49.8 (active) |
| KTI12 (KTI12 chromatin associated homolog) | 1 | 61.6 (active) |
| KTI12 (KTI12 chromatin associated homolog) | 2 | 59.9 (active) |
| KTI12 (KTI12 chromatin associated homolog) | 3 | 62.3 (active) |
| ACHE (acetylcholinesterase (Yt blood group)) | 1 | 65.4 (active) |
| ACHE (acetylcholinesterase (Yt blood group)) | 2 | 51.9 (active) |
| ACHE (acetylcholinesterase (Yt blood group)) | 3 | 56.9 (active) |
| PRKACG (protein kinase cAMP-activated catalytic subunit gamma) | 1 | 143 |
| PRKACG (protein kinase cAMP-activated catalytic subunit gamma) | 2 | 111 |
| PRKACG (protein kinase cAMP-activated catalytic subunit gamma) | 3 | 114 |
| MARK4 (microtubule affinity regulating kinase 4) | 1 | 79.3 (active) |
| MARK4 (microtubule affinity regulating kinase 4) | 2 | 82.1 |
| MARK4 (microtubule affinity regulating kinase 4) | 3 | 86.3 |
| MAP4K1 (mitogen-activated protein kinase kinase kinase kinase 1) | 1 | 83.4 |
| MAP4K1 (mitogen-activated protein kinase kinase kinase kinase 1) | 2 | 90.2 |
| MAP4K1 (mitogen-activated protein kinase kinase kinase kinase 1) | 3 | 91.2 |
| STK36 (serine/threonine kinase 36) | 1 | 106 |
| STK36 (serine/threonine kinase 36) | 2 | 89.4 |
| STK36 (serine/threonine kinase 36) | 3 | 106 |
| CSRNP2 (cysteine and serine rich nuclear protein 2) | 1 | 63.1 (active) |
| CSRNP2 (cysteine and serine rich nuclear protein 2) | 2 | 86.9 |
| CSRNP2 (cysteine and serine rich nuclear protein 2) | 3 | 88.9 |
| DHX58 (DExH-box helicase 58) | 1 | 67.9 (active) |
| DHX58 (DExH-box helicase 58) | 2 | 77.7 (active) |
| DHX58 (DExH-box helicase 58) | 3 | 75.2 (active) |
| PTTG3P (pituitary tumor-transforming 3, pseudogene) | 1 | 66.3 (active) |
| PTTG3P (pituitary tumor-transforming 3, pseudogene) | 2 | 46.6 (active) |
| PTTG3P (pituitary tumor-transforming 3, pseudogene) | 3 | 55.1 (active) |
| SGK3 (serum/glucocorticoid regulated kinase family member 3) | 1 | 70.7 (active) |
| SGK3 (serum/glucocorticoid regulated kinase family member 3) | 2 | 75.3 (active) |
| SGK3 (serum/glucocorticoid regulated kinase family member 3) | 3 | 62.1 (active) |
| TRERF1 (transcriptional regulating factor 1) | 1 | 73.6 (active) |
| TRERF1 (transcriptional regulating factor 1) | 2 | 64.7 (active) |
| TRERF1 (transcriptional regulating factor 1) | 3 | 71.5 (active) |
| STK32A (serine/threonine kinase 32A) | 1 | 94.9 |
| STK32A (serine/threonine kinase 32A) | 2 | 104 |
| STK32A (serine/threonine kinase 32A) | 3 | 99.5 |
| CILK1 (ciliogenesis associated kinase 1) | 1 | 80.4 |
| CILK1 (ciliogenesis associated kinase 1) | 2 | 53.2 (active) |
| CILK1 (ciliogenesis associated kinase 1) | 3 | 85.1 |
| ARFRP1 (ARF related protein 1) | 1 | 86.4 |
| ARFRP1 (ARF related protein 1) | 2 | 66.9 (active) |
| ARFRP1 (ARF related protein 1) | 3 | 75.6 (active) |
| NUDT1 (nudix hydrolase 1) | 1 | 54.8 (active) |
| NUDT1 (nudix hydrolase 1) | 2 | 74.7 (active) |
| NUDT1 (nudix hydrolase 1) | 3 | 50.2 (active) |
| MIER1 (MIER1 transcriptional regulator) | 1 | 53.3 (active) |
| MIER1 (MIER1 transcriptional regulator) | 2 | 49.1 (active) |
| MIER1 (MIER1 transcriptional regulator) | 3 | 48.3 (active) |
| RPS6KA3 (ribosomal protein S6 kinase A3) | 1 | 134 |
| RPS6KA3 (ribosomal protein S6 kinase A3) | 2 | 117 |
| RPS6KA3 (ribosomal protein S6 kinase A3) | 3 | 127 |
| POLN (DNA polymerase nu) | 1 | 78.8 (active) |
| POLN (DNA polymerase nu) | 2 | 68.8 (active) |
| POLN (DNA polymerase nu) | 3 | 72.9 (active) |
| AIPL1 (AIP like 1 HSP90 co-chaperone) | 1 | 78.3 (active) |
| AIPL1 (AIP like 1 HSP90 co-chaperone) | 2 | 77.9 (active) |
| AIPL1 (AIP like 1 HSP90 co-chaperone) | 3 | 76.9 (active) |
| GDAP2 (ganglioside induced differentiation associated protein 2) | 1 | 56.8 (active) |
| GDAP2 (ganglioside induced differentiation associated protein 2) | 2 | 69.4 (active) |
| GDAP2 (ganglioside induced differentiation associated protein 2) | 3 | 64 (active) |
| SUDS3 (SIN3A corepressor complex component SDS3) | 1 | 52.6 (active) |
| SUDS3 (SIN3A corepressor complex component SDS3) | 2 | 46.7 (active) |
| SUDS3 (SIN3A corepressor complex component SDS3) | 3 | 49.6 (active) |
| AK7 (adenylate kinase 7) | 1 | 84.9 |
| AK7 (adenylate kinase 7) | 2 | 87.4 |
| AK7 (adenylate kinase 7) | 3 | 59.6 (active) |

Looked up above:
Entry for NUDT1 (nudix hydrolase 1), technical replicate 2 in “viability, normalised (%)”: 74.7 (active)
GDAP2 (ganglioside induced differentiation associated protein 2), technical replicate 3, viability, normalised (%): 64 (active)
SGK3 (serum/glucocorticoid regulated kinase family member 3), technical replicate 3, viability, normalised (%) = 62.1 (active)
Value for RPS6KA3 (ribosomal protein S6 kinase A3), technical replicate 1 in “viability, normalised (%)”: 134
Value of PRKACG (protein kinase cAMP-activated catalytic subunit gamma), technical replicate 1 under “viability, normalised (%)”: 143
Under “viability, normalised (%)”, SUDS3 (SIN3A corepressor complex component SDS3), technical replicate 3 has 49.6 (active)
